Source: US4585773A, “Isoindolinyl-alkyl-piperazines” (Bristol-Myers Company, priority 1984, dated 1986)
“And” between values parts separate entries of the source, which are not always exact repeats. Identical values can stand only once. The name of at least one read-out is uncertain.

Experiment: conscious rat diuretic screen of Lipschitz (Table I)
Assay type: in vivo, rat (female Sprague Dawley; male Okamoto-Aoki)
Conditions: female Sprague Dawley rats; for K+ Ratio / Na+ Ratio / Volume Ratio: vs control
Description: With respect to diuretic utility there can be mentioned the conscious rat diuretic screen of Lipschitz, et al. (J. Pharmacol. Exp. Therap. 79, 97-110 (1943)). In this test, dose response assays of diuretic, natruiretic and kaliuretic activity are determined by oral administration of the test substance. The compounds synthesized in Examples I-XI were tested for diuretic […]. The compound of Example I was tested as its monohydrochloride 2-propanolate hydrate, i.e. as C22 […] ClN4 O4 S.HCl. 0.2(CH3)2 CHOH.0.15H2 O. Testing was carried out by the diuretic screen of Lipschitz, et al. described previously. In Table I below Volume Ratio is the ratio of total volume excreted for the test comuound compared to the total volume excreted for the control, Na^+ Ratio is the Na^+ excreted for the test compound compared to the Na^+ excreted for the control, K^+ Ratio is the K^+ excreted for the test compound compared to the K^+ excreted for the control. Female Sprague Dawley rats were used in Test Nos. 1, 2, 6, 7, 11-29. Male Okamoto-Aoki rats were used in Test Nos. 3-5 and 8-10 and testing for antihypertensive activity was carried out simultaneously on the Test Nos. 3-5 rats. In some instances, compounds were retested at the same dose level.

Cc1ccccc1N1CCN(CCCN2Cc3cc(Cl)c(S(N)(=O)=O)cc3C2=O)CC1 [Example IV, 6-Chloro-2,3-dihydro-2-[3-[4-(2-methylphenyl)-1-piperazinyl]propyl]-3-oxo-1H-isoindole-5-sulfonamide]
Urinary Na/K (Test Compound) (30 mg/kg oral): 3.15 and 2.98 | K+ Ratio (30 mg/kg oral): 1.26 | Na+ Ratio (30 mg/kg oral): 1.33 | Volume Ratio (30 mg/kg oral): 0.72 and 0.93

NS(=O)(=O)c1cc2c(cc1Cl)CN(CCCN1CCN(Cc3ccccc3)CC1)C2=O [Example V, 6-chloro-2,3-dihydro-3-oxo-2-[3-[4-(phenylmethyl)-1-piperazinyl]propyl]-1H-isoindole-5-sulfonamide]
Urinary Na/K (Test Compound) (3 mg/kg oral): 3.34 and 2.74 | K+ Ratio (3 mg/kg oral): 0.89 and 1.15 | Na+ Ratio (3 mg/kg oral): 1.31 | Volume Ratio (3 mg/kg oral): 1.17
